Taken from: PubChem BioAssay AID743454 (Peter MacCallum Cancer Centre, 2014)
Purpose: 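Knock-downs lowering viability or raising caspase 3/7 activity in vorinostat-treated resistant cells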 (primary screen). Cells: human HCT116-VR colon cancer cells, selected for vorinostat resistance. Reagent: siRNA pool against human genes, 40 nM siRNA pool. Time to read-out: vorinostat for 24 h, read-out about 72 h after transfection. Challenge: vorinostat at 2.5 µM final. Measurement: 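Cell viability by CellTiter-Fluor and caspase 3/7 activity by luminescence, each scaled to mock wells per plate, duplicates averaged, then robust z-scored over all plates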. Direction: viability robust z-score: higher = more viable cells than screen typical; caspase robust z-score: higher = more caspase 3/7 activity than screen typical. Call rule: 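Hits are knock-downs in viability class RV1/RV2 or caspase class CA1/CA2, excluding ones that killed cells in the no-drug cell-count arm; hits then retested with single siRNAs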.
The deposit covers about 18,000 reagents; below is a random part of them. 450 of all reagents (2.5%) count as active. 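Single biological run; no consistent viability z cut-off exists, so the class columns, not z-scores, define the calls.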 Entries without a mark were called inactive.

SPPL2A (signal peptide peptidase like 2A) | viability hit class = no change; caspase hit class = no change; viability robust z-score = 0.42; caspase robust z-score = 0.36
ECI2 (enoyl-CoA delta isomerase 2) | viability hit class = no change; caspase hit class = no change; viability robust z-score = -0.77; caspase robust z-score = 0.3
LMNTD1 (lamin tail domain containing 1) | viability hit class = no change; caspase hit class = no change; viability robust z-score = -0.56; caspase robust z-score = -0.16
C6orf136 (chromosome 6 open reading frame 136) | viability hit class = no change; caspase hit class = no change; viability robust z-score = 0.48; caspase robust z-score = -0.7
ATOSB (atos homolog B) | viability hit class = no change; caspase hit class = no change; viability robust z-score = -1.16; caspase robust z-score = 0.22
EAF2 (ELL associated factor 2) | viability hit class = no change; caspase hit class = no change; viability robust z-score = 2.11; caspase robust z-score = -0.21
ISL2 (ISL LIM homeobox 2) | viability hit class = no change; caspase hit class = no change; viability robust z-score = -1.27; caspase robust z-score = 2.52
TAS2R14 (taste 2 receptor member 14) | viability hit class = no change; caspase hit class = no change; viability robust z-score = -3.75; caspase robust z-score = 1.15
MVB12A (multivesicular body subunit 12A) | viability hit class = no change; caspase hit class = no change; viability robust z-score = -0.51; caspase robust z-score = -0.12
ZC2HC1A (zinc finger C2HC-type containing 1A) | viability hit class = no change; caspase hit class = no change; viability robust z-score = 0.15; caspase robust z-score = -0.7
MICA (MHC class I polypeptide-related sequence A) | viability hit class = no change; caspase hit class = no change; viability robust z-score = -1.07; caspase robust z-score = -0.9
OTUD3 (OTU deubiquitinase 3) | viability hit class = no change; caspase hit class = no change; viability robust z-score = -0.34; caspase robust z-score = 0.46
SIDT2 (SID1 transmembrane family member 2) | viability hit class = no change; caspase hit class = no change; viability robust z-score = 1.07; caspase robust z-score = 1.64
NEU2 (neuraminidase 2) | viability hit class = no change; caspase hit class = no change; viability robust z-score = 0.76; caspase robust z-score = -0.38
LGALS4 (galectin 4) | viability hit class = no change; caspase hit class = no change; viability robust z-score = -0.55; caspase robust z-score = 2.07
ZNF202 (zinc finger protein 202) | viability hit class = no change; caspase hit class = no change; viability robust z-score = 0.12; caspase robust z-score = 0.09

Sorted by “viability robust z-score” (ascending): some entries from above.
LGALS4 (galectin 4) | viability hit class = no change; caspase hit class = no change; viability robust z-score = -0.55; caspase robust z-score = 2.07
ZNF202 (zinc finger protein 202) | viability hit class = no change; caspase hit class = no change; viability robust z-score = 0.12; caspase robust z-score = 0.09
NEU2 (neuraminidase 2) | viability hit class = no change; caspase hit class = no change; viability robust z-score = 0.76; caspase robust z-score = -0.38
SIDT2 (SID1 transmembrane family member 2) | viability hit class = no change; caspase hit class = no change; viability robust z-score = 1.07; caspase robust z-score = 1.64

Next reagents follow:
ARMC5 (armadillo repeat containing 5) | viability hit class = no change; caspase hit class = no change; viability robust z-score = 1.8; caspase robust z-score = 1.89
DPP10 (dipeptidyl peptidase like 10) | viability hit class = no change; caspase hit class = no change; viability robust z-score = 0.54; caspase robust z-score = -1.04
GALNS (galactosamine (N-acetyl)-6-sulfatase) | viability hit class = no change; caspase hit class = no change; viability robust z-score = 0.84; caspase robust z-score = 1.21
OR10Z1 (olfactory receptor family 10 subfamily Z member 1) | viability hit class = no change; caspase hit class = no change; viability robust z-score = 0.45; caspase robust z-score = 0.44
TF (transferrin) | viability hit class = no change; caspase hit class = no change; viability robust z-score = -0.84; caspase robust z-score = 2.42
TRMT11 (tRNA methyltransferase 11) | viability hit class = no change; caspase hit class = no change; viability robust z-score = -0.55; caspase robust z-score = 2.09
SLC25A40 | viability hit class = no change; caspase hit class = no change; viability robust z-score = -0.14; caspase robust z-score = 0.16
SRSF9 (serine and arginine rich splicing factor 9) | viability hit class = no change; caspase hit class = no change; viability robust z-score = 0.78; caspase robust z-score = -0.52
PRDM2 (PR/SET domain 2) | viability hit class = no change; caspase hit class = no change; viability robust z-score = 2.7; caspase robust z-score = 0.16
KANSL2 (KAT8 regulatory NSL complex subunit 2) | viability hit class = no change; caspase hit class = no change; viability robust z-score = 0.49; caspase robust z-score = -0.6
COPS2 (COP9 signalosome subunit 2) | viability hit class = no change; caspase hit class = no change; viability robust z-score = -0.09; caspase robust z-score = -0.04
